Measured data: PubChem BioAssay AID504791 (Drosophila RNAi Screening Center, 2011)
Screen: 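Genes whose knock-down strengthens or weakens small-RNA reporter silencing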 (primary screen). System: Drosophila S2-derived reporter cells. Reagent: long dsRNA against Drosophila genes, about 150-250 ng dsRNA per well (siRNA assay); about 80-120 ng (miRNA assay). Timing: about 5 days (siRNA assay); about 4 days (miRNA assay). Conditions: copper sulfate induction of reporters: 25 µM (siRNA assay); 200 mM stated (miRNA assay), 1-2 days before reading. Read-out: 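Per-well ratio of Renilla over firefly light, expressed relative to that plate's average ratio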. Reading the numbers: siRNA reporter hit score: higher = 3 marks a strong hit with raised ratio; -3 a strong hit with lowered ratio. Rule for the call: 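First-pass picks had plate-scaled ratios over 1.5 for the siRNA assay, over 1.6 for the miRNA assay, or under 0.6; two distinct dsRNAs had to score alike on retest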.
The deposit covers about 23,000 reagents; shown is a random part of those with a known target gene and a result. Of all reagents, 199 (0.86%) are marked active. 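Plate-scaled ratios behind the calls are not deposited; printed light signals are raw; many rows marked increased or decreased are still called inactive.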 Unmarked entries are inactive. Names joined by + are all predicted targets of the reagent.

TTLL4A [DRSC02528]: stable assay Renilla, run 1 (luminescence) = 29868; stable assay firefly, run 1 (luminescence) = 1.38e6
CG15141 [DRSC02441]: stable assay Renilla, run 1 (luminescence) = 28235; stable assay firefly, run 1 (luminescence) = 1.78e6
CG15141 [DRSC02442]: stable assay Renilla, run 1 (luminescence) = 8989; stable assay firefly, run 1 (luminescence) = 5.63e5
CG13721 [DRSC08330]: stable assay Renilla, run 1 (luminescence) = 6015; stable assay firefly, run 1 (luminescence) = 4.58e5
CG15237 [DRSC04971]: stable assay Renilla, run 1 (luminescence) = 6415; stable assay firefly, run 1 (luminescence) = 4.76e5
CG5043 [DRSC02805]: stable assay Renilla, run 1 (luminescence) = 7866; stable assay firefly, run 1 (luminescence) = 4.02e5
omd [DRSC16507]: siRNA reporter hit score = -3; stable assay Renilla, run 1 (luminescence) = 14819; stable assay firefly, run 1 (luminescence) = 8.84e5
CG32762 [DRSC18298]: stable assay Renilla, run 1 (luminescence) = 5103; stable assay firefly, run 1 (luminescence) = 4.33e5
CG13806 [DRSC08341]: stable assay Renilla, run 1 (luminescence) = 6151; stable assay firefly, run 1 (luminescence) = 3.27e5
Gs1l [DRSC00754]: stable assay Renilla, run 1 (luminescence) = 7475; stable assay firefly, run 1 (luminescence) = 4.89e5
Ptx1 [DRSC16804]: stable assay Renilla, run 1 (luminescence) = 6043; stable assay firefly, run 1 (luminescence) = 3.53e5
CG13339 [DRSC06373]: stable assay Renilla, run 1 (luminescence) = 6570; stable assay firefly, run 1 (luminescence) = 3.47e5
RpS23 [DRSC07169]: stable assay Renilla, run 1 (luminescence) = 8083; stable assay firefly, run 1 (luminescence) = 6.13e5
RpS23 [DRSC26313]: miRNA reporter change = reporter ratio lowered past the hit cutoff
AMPdeam [DRSC18996]: stable assay Renilla, run 1 (luminescence) = 2888; stable assay firefly, run 1 (luminescence) = 2.73e5
AMPdeam [DRSC19366]: stable assay Renilla, run 1 (luminescence) = 7822; stable assay firefly, run 1 (luminescence) = 5.83e5
AMPdeam [DRSC19368]: stable assay Renilla, run 1 (luminescence) = 6307; stable assay firefly, run 1 (luminescence) = 5.53e5
AMPdeam [DRSC19727]: stable assay Renilla, run 1 (luminescence) = 6614; stable assay firefly, run 1 (luminescence) = 6.33e5
Acox3 [DRSC03251]: stable assay Renilla, run 1 (luminescence) = 7487; stable assay firefly, run 1 (luminescence) = 3.67e5
Vta1 [DRSC08604]: stable assay Renilla, run 1 (luminescence) = 4759; stable assay firefly, run 1 (luminescence) = 3.51e5
Vta1 [DRSC22848]: stable assay Renilla, run 1 (luminescence) = 5332; stable assay firefly, run 1 (luminescence) = 5.36e5
Mulk [DRSC02658]: stable assay Renilla, run 1 (luminescence) = 8371; stable assay firefly, run 1 (luminescence) = 1.01e6
Ubc2 [DRSC01137]: stable assay Renilla, run 1 (luminescence) = 5559; stable assay firefly, run 1 (luminescence) = 4.71e5
Ubc2 [DRSC03468]: stable assay Renilla, run 1 (luminescence) = 7248; stable assay firefly, run 1 (luminescence) = 3.14e5
ATPsynbetaL [DRSC10503]: stable assay Renilla, run 1 (luminescence) = 7211; stable assay firefly, run 1 (luminescence) = 3.23e5
CG4440 [DRSC02747]: stable assay Renilla, run 1 (luminescence) = 6403; stable assay firefly, run 1 (luminescence) = 5.37e5
CG5618 [DRSC11780]: stable siRNA reporter change = reporter ratio lowered past the hit cutoff; stable assay Renilla, run 1 (luminescence) = 4699; stable assay firefly, run 1 (luminescence) = 3.34e5
sut3 [DRSC07702]: stable assay Renilla, run 1 (luminescence) = 6922; stable assay firefly, run 1 (luminescence) = 3.90e5
Cpr60D [DRSC04492]: stable assay Renilla, run 1 (luminescence) = 6787; stable assay firefly, run 1 (luminescence) = 4.16e5
CG15145 [DRSC02446]: stable assay Renilla, run 1 (luminescence) = 6667; stable assay firefly, run 1 (luminescence) = 3.32e5
Fas2 [DRSC17308]: stable assay Renilla, run 1 (luminescence) = 6154; stable assay firefly, run 1 (luminescence) = 3.13e5
Fas2 [DRSC17309]: stable assay Renilla, run 1 (luminescence) = 7243; stable assay firefly, run 1 (luminescence) = 3.69e5
Fas2 [DRSC18664]: stable assay Renilla, run 1 (luminescence) = 7505; stable assay firefly, run 1 (luminescence) = 4.61e5
Coq4 + Gorab + frc [DRSC10383]: stable assay Renilla, run 1 (luminescence) = 8312; stable assay firefly, run 1 (luminescence) = 4.75e5
Pgcl [DRSC18815]: stable assay Renilla, run 1 (luminescence) = 5067; stable assay firefly, run 1 (luminescence) = 4.72e5
